From publication PMC11957191
No constants are given. Whether binding was seen depends on the method and setting. Some results given as binding are weak or reduced against the parent protein; the word gives no strength.

The chains behind the UniProt entries cited, without tags or fusion partners. Where a name states a change or a piece, a line headed by the entry shows the natural chain unless it says otherwise. A line that says so, or that is headed by a name, gives the form on record, which may keep a tag or linker. Residues count along the entry.
UniProt P84077: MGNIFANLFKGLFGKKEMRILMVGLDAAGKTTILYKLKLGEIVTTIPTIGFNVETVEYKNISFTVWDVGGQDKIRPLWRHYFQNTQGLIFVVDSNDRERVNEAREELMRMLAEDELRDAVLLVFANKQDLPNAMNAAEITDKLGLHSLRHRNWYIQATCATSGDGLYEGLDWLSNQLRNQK
MTSL-tagged myrArf1 K38C (Cys159 mutated to Ala) (P84077, form named): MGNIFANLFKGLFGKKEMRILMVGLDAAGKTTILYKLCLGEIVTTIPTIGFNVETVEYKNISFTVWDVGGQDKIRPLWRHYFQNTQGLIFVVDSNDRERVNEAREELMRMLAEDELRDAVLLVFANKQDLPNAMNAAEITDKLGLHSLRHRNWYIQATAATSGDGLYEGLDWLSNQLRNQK
MTSL-tagged myrArf1 K73C (Cys159 mutated to Ala) (P84077, form named): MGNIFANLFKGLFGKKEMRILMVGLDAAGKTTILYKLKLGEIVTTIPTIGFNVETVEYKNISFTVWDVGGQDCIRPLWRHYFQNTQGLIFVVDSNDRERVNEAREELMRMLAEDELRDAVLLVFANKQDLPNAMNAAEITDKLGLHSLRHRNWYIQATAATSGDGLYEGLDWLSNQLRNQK
wt ASAP1 PH domain, [325–451]ASAP1 (Q9QWY8, residues 325-451): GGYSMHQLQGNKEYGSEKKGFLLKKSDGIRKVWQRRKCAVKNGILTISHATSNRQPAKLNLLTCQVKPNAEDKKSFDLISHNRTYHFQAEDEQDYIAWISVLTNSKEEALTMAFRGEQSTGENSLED
ΔN9 ASAP1 PH domain, [334–451]ASAP1 (Q9QWY8, residues 334-451): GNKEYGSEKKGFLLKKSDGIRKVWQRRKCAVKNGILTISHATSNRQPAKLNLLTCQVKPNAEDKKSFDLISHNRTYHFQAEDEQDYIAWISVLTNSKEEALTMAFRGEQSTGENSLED
ΔN14 ASAP1 PH domain, [339–451]ASAP1 (Q9QWY8, residues 339-451): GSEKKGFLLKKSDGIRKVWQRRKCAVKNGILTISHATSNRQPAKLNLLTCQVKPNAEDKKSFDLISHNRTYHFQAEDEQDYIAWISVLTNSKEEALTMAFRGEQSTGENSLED

Assays:
[1] = molecular target: myristoylated human Arf1 (myrArf1), GTP-bound form at a membrane surface (human) (UniProt P84077); assay: 31P NMR; 1D 31P spectra of GTPγS bound to myrArf1 on nanodiscs, alone or with ASAP1 PH, 25 °C; both purified
[2] = molecular target: MTSL-tagged myrArf1 K38C (Cys159 mutated to Ala) (human) (UniProt P84077); assay: NMR intermolecular paramagnetic relaxation enhancement (PRE); 60 μM MTSL-labelled myrArf1 variants on nanodiscs, 50 μM methyl-labelled perdeuterated ASAP1 PH, paramagnetic against ascorbate-reduced sample, 25 °C; both purified
[3] = molecular target: MTSL-tagged myrArf1 K73C (Cys159 mutated to Ala) (human) (UniProt P84077); assay: as above
[4] = molecular target: myristoylated human Arf1 (myrArf1), GTP-bound form at a membrane surface (human) (UniProt P84077); assay: NMR titration; 1H-15N TROSY-HSQC (1D projections) on nanodiscs with PI(4,5)P2: labelled myrArf1 without and with a stoichiometric ratio of wt PH; ZA-labelled PZA on nanodiscs alone or with membrane-bound myrArf1 (25 °C); both purified
[5] = molecular target: Cys159-MTSL tagged myrArf1 (human) (UniProt P84077); assay: NMR intermolecular paramagnetic relaxation enhancement (PRE); Cys159-MTSL myrArf1 with a non-hydrolysable GTP analog on nanodiscs, alone or in complex with wt PH (100 μM), and 100 μM isotopically labeled isolated ZA domain; both purified
[6] = molecular target: myristoylated human Arf1 (myrArf1), GTP-bound form at a membrane surface (human) (UniProt P84077); assay: NMR titration; 1H-13C methyl HMQC, 25 °C; myrArf1·GTPγS on nanodiscs (PC:PI(4,5)P2 95:5) with ASAP1 PH at about equimolar ratio (1:1.2); one partner methyl-labelled, the other 2H or 1H; 20 mM Tris-HCl pH 7.4, 150 mM NaCl, 1 mM MgCl2, 0.5 mM TCEP; both purified
[7] = molecular target: myristoylated human Arf1 (myrArf1), GTP-bound form at a membrane surface (human) (UniProt P84077); assay: other fluorescence titration + other: inhibition of GAP activity; PH domain titrated; (i) rate of mant-GTP dissociation from myrArf1 on LUVs with 5 mol% PI(4,5)P2, followed by FRET from Arf tryptophan to mant-GTP, excess GTP 160 μM; (ii) IC50 of PH domain for GAP activity of 1 nM wt PZA on myrArf1·GTP below the Km; both served as proxies for the affinity; both purified

Row | binding [1] | binding [2] | binding [3] | binding [4] | binding [5] | binding [6] | binding [7] | Substance
1 | binds | binds | binds | binds | binds | binds | binds | wt ASAP1 PH domain, [325–451]ASAP1 (from UniProt Q9QWY8 325-451) (domain or fragment)
2 | – | – | – | – | – | binds | – | ΔN9 ASAP1 PH domain, [334–451]ASAP1 (from UniProt Q9QWY8 334-451) (domain or fragment)
3 | – | – | – | – | – | binds | – | ΔN14 ASAP1 PH domain, [339–451]ASAP1 (from UniProt Q9QWY8 339-451) (domain or fragment)
